In PubChem BioAssay AID328 (DTP/NCI, 2004):
The list does not hold the whole screen: it is rich in T/C values a quarter to a half above the control, in often repeated tests (any T/C) and in doses without a T/C. Other doses and runs of a compound stand elsewhere. T/C: endpoint of the treated group in % of that of the vehicle group. Some entries give survivors of the animals treated and no T/C: the source files T/C as zero there, which appears to mark a toxic dose or a test without result, not a measured value. Some doses without a T/C left all or most animals alive at the check, yet need not have been tolerated: the source hardly ever lists a survival T/C far under the control, and the zero likely stands for such cases as well. Counts of survivors are from the toxicity check (mostly the fifth day) where no day follows; animals may have died later. Schedule codes are those of the source, taken here to give the interval after Q, in days (D) or hours (H), and the number of doses after X. Some entries hold several experiments; their values stand side by side, smallest first. Where survival is the endpoint, the PubChem record calls one and a half times the control and up active, and a quarter to a half above the control has no call in these data; cut-offs in other NCI protocols can differ.

Test system: BDF1 mice, P388 leukemia ip, median survival T/C
Test: NCI In Vivo Anticancer Drug Screen. Data for tumor model P388 Leukemia (intraperitoneal) in B6D2F1 (BDF1) mice
Details: T/C endpoint: median survival time, higher T/C = longer survival
Method in brief: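 T/C = treated-group survival ÷ vehicle-control survival; tumour transplanted into mice before dosing.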

[1] = dose: 50.0 mg/kg/injection, schedule: Q01DX009 (ip), vehicle: saline
[2] = dose: 5.0 mg/kg/injection, schedule: Q01DX009 (ip), vehicle: gum acacia
[3] = dose: 200.0 mg/kg/injection, schedule: Q01DX009 (ip), vehicle: Klucel (hydroxypropylcellulose) (HPC)
[4] = dose: 100.0 mg/kg/injection, schedule: Q01DX009 (ip), vehicle: saline with Tween-80
[5] = dose: 400.0 mg/kg/injection, schedule: Q01DX009 (ip), vehicle: saline with Tween-80

Which results are given for `CO[C@H]1C[C@H](O[C@H]2CC[C@]3(C=O)[C@H]4CC[C@]5(C)[C@@H](C6=CC(=O)OC6)CC[C@]5(O)[C@@H]4CC[C@]3(O)C2)O[C@H](C)[C@H]1O[C@@H]1O[C@H](CO)[C@@H](O)[C@H](O)[C@H]1O`?
survivor count (dose: 2.0 mg/kg/injection, schedule: Q01DX009 (ip), vehicle: saline): 2 of 6; survivor count (dose: 2.0 mg/kg/injection, schedule: Q01DX010 (ip), vehicle: saline): 2 of 6; survivor count (dose: 4.0 mg/kg/injection, schedule: Q01DX010 (ip), vehicle: saline): 0 of 6

How did the survivor count (dose: 100.0 mg/kg/injection, schedule: Q01DX009 (ip), vehicle: saline + alcohol) turn out when `[N-]=[N+]=NC(=O)c1cccs1` was run?
Its survivor count is 3 of 6.

What about the survivor count (dose: 200.0 mg/kg/injection, schedule: Q01DX009 (ip), vehicle: saline + alcohol) of the same molecule?
Its survivor count is 0 of 6.

Which T/C (dose: 200.0 mg/kg/injection, schedule: Q04DX003 (ip), vehicle: saline with Tween-80) does the source give for `CCCCN(C(=O)C(F)(F)F)C(C)(C)C(SSSC(c1cccs1)C(C)(C)N(CCCC)C(=O)C(F)(F)F)c1cccs1` (stereo unspecified) here?
The T/C was 127 % of control.

What about the T/C (dose: 400.0 mg/kg/injection, schedule: Q04DX003 (ip), vehicle: saline with Tween-80) of the same molecule?
The T/C was 127 % of control.

With `Cc1ccc(S(=O)(=O)O)cc1` as the molecule, how does the survivor count (dose: 200.0 mg/kg/injection, schedule: Q04DX003 (ip), vehicle: saline) read?
Its survivor count is 0 of 6.

How did the survivor count (dose: 25.0 mg/kg/injection, schedule: Q04DX003 (ip), vehicle: saline) turn out when `C[N+]1(C)CCCC1` was run?
The survivor count was 0 of 6.

How did the survivor count [1] turn out when `CC(C)=CC(=O)OCC[N+](C)(C)C` was run?
Its survivor count is 0 of 6.

With `CC1(C)N=C(N)N=C(N)N1c1cccc(-c2ccccc2)c1` as the molecule, how does the survivor count (dose: 18.75 mg/kg/injection, schedule: Q01DX009 (ip), vehicle: Klucel (hydroxypropylcellulose) (HPC)) read?
Its survivor count is 1 of 6.

And the survivor count (dose: 37.5 mg/kg/injection, schedule: Q01DX009 (ip), vehicle: Klucel (hydroxypropylcellulose) (HPC))?
The survivor count was 0 of 6.

What about the survivor count (dose: 75.0 mg/kg/injection, schedule: Q01DX009 (ip), vehicle: Klucel (hydroxypropylcellulose) (HPC)) of the same molecule?
Its survivor count is 0 of 6.

What about the survivor count (dose: 150.0 mg/kg/injection, schedule: Q01DX009 (ip), vehicle: Klucel (hydroxypropylcellulose) (HPC)) of the same molecule?
The survivor count was 0 of 6.

With `Cc1ccc(NC(=O)c2ccccc2)cc1[As]=[As]c1cc(NC(=O)c2ccccc2)ccc1C` (stereo unspecified) as the molecule, how does the T/C (dose: 1.25 mg/kg/injection, schedule: Q01DX009 (ip), vehicle: gum acacia) read?
Its T/C is 125 % of control.

And the T/C (dose: 2.5 mg/kg/injection, schedule: Q01DX009 (ip), vehicle: gum acacia)?
Its T/C is 137 % of control.

What about the T/C (dose: 2.5 mg/kg/injection, schedule: Q04DX003 (ip), vehicle: gum acacia) of the same molecule?
Its T/C is 140 % of control.

And the T/C (dose: 3.3 mg/kg/injection, schedule: Q04DX003 (ip), vehicle: gum acacia)?
Its T/C is 140 % of control.

What about the T/C (dose: 3.35 mg/kg/injection, schedule: Q01DX009 (ip), vehicle: gum acacia) of the same molecule?
Its T/C is 132 % of control.

What about the T/C [2] of the same molecule?
Its T/C is 139 and 140 % of control.

What about the survivor count [2] of the same molecule?
The survivor count was 4 of 6.

What about the T/C (dose: 5.0 mg/kg/injection, schedule: Q04DX003 (ip), vehicle: gum acacia) of the same molecule?
The T/C was 136, 140, 145 % of control.

What about the survivor count (dose: 7.5 mg/kg/injection, schedule: Q01DX009 (ip), vehicle: gum acacia) of the same molecule?
The survivor count was 0 of 6.

And the survivor count (dose: 7.5 mg/kg/injection, schedule: Q04DX003 (ip), vehicle: Klucel (hydroxypropylcellulose) (HPC))?
The survivor count was 4 of 6.

And the survivor count (dose: 7.5 mg/kg/injection, schedule: Q04DX003 (ip), vehicle: gum acacia)?
Its survivor count is 0 of 6.

What about the survivor count (dose: 10.0 mg/kg/injection, schedule: Q01DX009 (ip), vehicle: gum acacia) of the same molecule?
The survivor count was 6 of 6.

What about the survivor count (dose: 10.0 mg/kg/injection, schedule: Q04DX003 (ip), vehicle: gum acacia) of the same molecule?
Its survivor count is 0 of 6.

What about the survivor count (dose: 20.0 mg/kg/injection, schedule: Q04DX003 (ip), vehicle: gum acacia) of the same molecule?
Its survivor count is 0 of 6.

What does the source list for `c1coc(-c2ncnc3c2Cc2ccccc2-3)c1`?
survivor count (dose: 225.0 mg/kg/injection, schedule: Q01DX009 (ip), vehicle: Klucel (hydroxypropylcellulose) (HPC)): 4 of 6; survivor count (dose: 335.0 mg/kg/injection, schedule: Q01DX009 (ip), vehicle: Klucel (hydroxypropylcellulose) (HPC)): 0 of 6

How did the T/C (dose: 6.0 mg/kg/injection, schedule: Q01DX009 (ip), vehicle: Klucel (hydroxypropylcellulose) (HPC)) turn out when `O=NN(CCF)C(=O)NC12CC3CC(CC(C3)C1)C2` was run?
The T/C was 125 % of control.

And the survivor count (dose: 50.0 mg/kg/injection, schedule: Q01DX009 (ip), vehicle: Klucel (hydroxypropylcellulose) (HPC))?
The survivor count was 4 of 6.

What about the survivor count (dose: 75.0 mg/kg/injection, schedule: Q04DX003 (ip), vehicle: Klucel (hydroxypropylcellulose) (HPC)) of the same molecule?
Its survivor count is 1 of 6.

And the survivor count (dose: 100.0 mg/kg/injection, schedule: Q01DX009 (ip), vehicle: Klucel (hydroxypropylcellulose) (HPC))?
Its survivor count is 0 of 6.

What about the survivor count (dose: 100.0 mg/kg/injection, schedule: Q04DX003 (ip), vehicle: Klucel (hydroxypropylcellulose) (HPC)) of the same molecule?
The survivor count was 5 of 6.

What about the survivor count [3] of the same molecule?
The survivor count was 0 of 6.

And the survivor count (dose: 200.0 mg/kg/injection, schedule: Q04DX003 (ip), vehicle: Klucel (hydroxypropylcellulose) (HPC))?
Its survivor count is 2 of 6.

`CC(=O)NC(Cc1ccc(F)cc1)C(=O)O` (stereo unspecified) was tested. Which T/C [4] did it give?
Its T/C is 127 % of control.

And the T/C [5]?
The T/C was 130 % of control.

`CC1(C)N=C(N)N=C(N)N1c1ccc(OCC(=O)N2CCOCC2)c(Cl)c1` was tested. Which T/C (dose: 25.0 mg/kg/injection, schedule: Q01DX009 (ip), vehicle: saline sonified) did it give?
Its T/C is 131 % of control.

What about the T/C (dose: 50.0 mg/kg/injection, schedule: Q01DX009 (ip), vehicle: saline sonified) of the same molecule?
Its T/C is 131 % of control.

Which results are given for `O=S(=O)(C=C(N1CCCCC1)N1CCCCC1)Cc1ccccc1`?
survivor count [1]: 3 of 6; survivor count (dose: 80.0 mg/kg/injection, schedule: Q01DX009 (ip), vehicle: saline): 0 of 6; survivor count (dose: 105.0 mg/kg/injection, schedule: Q04DX003 (ip), vehicle: saline): 6 of 6; survivor count (dose: 120.0 mg/kg/injection, schedule: Q01DX009 (ip), vehicle: saline): 0 of 6

With `CC1(C)CC(C)(c2ccccc2)c2ccccc21` (stereo unspecified) as the molecule, how does the T/C [3] read?
Its T/C is 130 % of control.

What about the survivor count [3] of the same molecule?
The survivor count was 6 of 6.

What about the survivor count (dose: 400.0 mg/kg/injection, schedule: Q01DX009 (ip), vehicle: Klucel (hydroxypropylcellulose) (HPC)) of the same molecule?
The survivor count was 6 of 6.

Which results are given for `CCO/C=C1\SC(=S)N(c2ccco2)C1=O`?
T/C (dose: 14.6 mg/kg/injection, schedule: Q01DX009 (ip), vehicle: saline with Tween-80): 127 % of control; T/C (dose: 25.0 mg/kg/injection, schedule: Q01DX009 (ip), vehicle: saline with Tween-80): 136 % of control; T/C (dose: 30.0 mg/kg/injection, schedule: Q01DX009 (ip), vehicle: saline with Tween-80): 130 % of control; T/C (dose: 33.0 mg/kg/injection, schedule: Q01DX009 (ip), vehicle: saline with Tween-80): 127 % of control; T/C (dose: 44.0 mg/kg/injection, schedule: Q01DX009 (ip), vehicle: saline with Tween-80): 130 and 133 % of control; T/C (dose: 50.0 mg/kg/injection, schedule: Q01DX009 (ip), vehicle: saline with Tween-80): 136 % of control; T/C (dose: 66.0 mg/kg/injection, schedule: Q01DX009 (ip), vehicle: saline with Tween-80): 126 and 135 % of control; T/C [4]: 116, 136, 140 % of control; survivor count [4]: 3 of 6; survivor count (dose: 150.0 mg/kg/injection, schedule: Q01DX009 (ip), vehicle: saline with Tween-80): 2 of 6 and 6 of 6; survivor count (dose: 150.0 mg/kg/injection, schedule: Q01DX009 (ip), vehicle: saline): 5 of 6; survivor count (dose: 200.0 mg/kg/injection, schedule: Q01DX009 (ip), vehicle: saline with Tween-80): 4 of 6; survivor count [5]: 6 of 6
